# Test results taken from PubChem BioAssay AID1259354 (Paczesny and Yang Labs, IUPUI and University of Michigan, 2018).
# Chains of the proteins cited; added tags and fusions are not shown. Lines headed by an entry give the natural chain unless they say otherwise; changes in a name come on top.
# UniProt Q01638: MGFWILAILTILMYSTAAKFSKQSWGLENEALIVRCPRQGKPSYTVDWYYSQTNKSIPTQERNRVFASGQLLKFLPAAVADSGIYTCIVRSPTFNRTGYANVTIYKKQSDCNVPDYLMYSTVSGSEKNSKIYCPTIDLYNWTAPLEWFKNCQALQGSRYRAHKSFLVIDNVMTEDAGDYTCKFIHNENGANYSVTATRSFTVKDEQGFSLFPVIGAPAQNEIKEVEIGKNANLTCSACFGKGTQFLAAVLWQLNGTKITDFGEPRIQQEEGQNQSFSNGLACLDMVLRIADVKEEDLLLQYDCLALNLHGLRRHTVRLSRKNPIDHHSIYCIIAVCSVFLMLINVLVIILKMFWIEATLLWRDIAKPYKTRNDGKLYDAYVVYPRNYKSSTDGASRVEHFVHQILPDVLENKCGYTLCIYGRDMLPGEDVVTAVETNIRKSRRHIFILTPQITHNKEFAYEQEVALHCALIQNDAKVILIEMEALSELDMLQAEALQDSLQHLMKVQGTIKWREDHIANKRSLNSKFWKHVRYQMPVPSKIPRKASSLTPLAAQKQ
# About 1,800 (2.3%) of roughly 78,000 compounds were called active. The inconclusive results got no clear call from the source; some entries with a clear call stand among them for comparison. Cut-off read from the data, not from the text of the source: active = inhibition above about 30%; inconclusive = mostly about 10% to 28%; inactive = weaker than that.
# Biological target: Interleukin-1 receptor-like 1 (Homo sapiens) (UniProt Q01638)
# Test: blocks human ST2 binding to IL-33, primary screen, biochemical, AlphaLISA (AID 1259354)
# Conditions: AlphaLISA ST2-Fc/biotin-IL-33 interaction, 1 h; at 17 µM, hits give high values
row,Compound,inhibition
1,COc1ccc2cc(C(=O)NC(C)=O)c(=Nc3ccc(C#N)cc3)oc2c1,active: 37%
2,CCc1cc(C(=O)OC)c(NC(=O)CC2Sc3ccccc3NC2=O)s1 (stereo unspecified),inconclusive: 14%
3,COc1ccc(-c2csc(Nc3ccccc3OC)n2)cc1F,inconclusive: 20%
4,Cc1nc2c(C(=O)NC3CCC(C)CC3)c[nH]n2c(=O)c1Cc1ccccc1F (stereo unspecified),inactive
5,C=CCSC1=C(C#N)C(c2ccc(C)cc2)CC(=O)N1 (stereo unspecified),inactive
6,COc1ccc(/C=C2\N=C(c3ccccc3Br)OC2=O)c(OC)c1OC,inactive
7,CCC(=O)c1cc2c(cc1NC(=O)c1cccc(Cl)c1)OCCO2,inactive
8,Cc1ncc(-c2c(-c3ccccc3)ncn2CCNC(=O)c2ccncc2)s1,inactive
9,CN1CC2(CCCN(C(=O)CN3CCOc4ccccc4C3)C2)OC1=O (stereo unspecified),inactive
10,c1ccc(C2(c3ccccc3)OC(c3cccnc3)Nc3ccccc32)cc1 (stereo unspecified),active: 35%
11,OC(C#Cc1ccccc1)c1ccco1 (stereo unspecified),inconclusive: 17%
12,Cc1cc(C)cc(NCC(=O)Nc2c(C)cccc2C)c1,inconclusive: 13%
13,COc1ccc(CN(CC(C)C)C(=O)c2ccoc2)cc1,inconclusive: 19%
14,Cc1ccccc1C(OCCN(C)C)c1ccccc1 (stereo unspecified),inconclusive: 11%
15,CCCCNC(=O)C1(S(=O)(=O)c2ccc(Cl)cc2)CC1,inconclusive: 12%
16,COc1cc(C=Nc2ccc(Nc3ccccc3)cc2)c([N+](=O)[O-])cc1OC,active: 57%
17,O=C(CSc1nnc(CSc2nc3ccccc3s2)n1-c1ccccc1)NCCO,inconclusive: 11%
18,CCc1nnc(NC(=O)CSc2nc(N)c(C#N)cc2C#N)s1,inconclusive: 10%
19,CCCC(=O)Nc1ccc(-c2ccc(NC(=O)CCC)cc2)cc1,inconclusive: 22%
20,CCOC(=O)C1=C(c2ccccc2)NC(SCC(=O)OC)=C(C#N)C1c1cccnc1 (stereo unspecified),inactive
21,CCCCC1C=CCN1C(=O)C1CCN(Cc2ccco2)CC1 (stereo unspecified),inconclusive: 13%
22,COc1ccc2cc(C(=O)NCC3(O)CCCNCC3)n(C)c2c1 (stereo unspecified),inconclusive: 22%
23,O=C(CN1C(=O)/C(=C\c2ccc(C(F)(F)F)cc2)Sc2ccccc21)NCc1ccccn1,inconclusive: 28%
24,Cc1[nH]cnc1-c1nccn1CCCc1ccccc1,inconclusive: 20%

row,Compound,inhibition
1,COCCNC(=O)C[C@@H]1O[C@H](CNC(=O)Nc2ccccc2)[C@@H](O)[C@H]1O,inconclusive: 16%
2,CCOC(=O)C1CCN(C(c2ccc(C)cc2)c2sc3nc(C)nn3c2O)CC1 (stereo unspecified),inconclusive: 18%
3,COc1ccc(N2C(=O)C(O)=C(C(C)=O)C2c2ccccc2)cc1 (stereo unspecified),inconclusive: 13%
4,CC(=O)c1cccc(NC(=O)NC2CCCN(C3CCCCCC3)C2)c1 (stereo unspecified),inconclusive: 13%
5,N#Cc1cc2c(N)c(C(=O)c3ccccc3)sc2nc1N,inconclusive: 16%
6,CC(C)c1nccn1CCCNC(=O)c1ccc(N(C)C)nc1,inactive
7,CCSCCOC(=O)C1=C(C)NC2=C(C(=O)C(C(=O)OC)C(C)C2)C1c1ccccc1F (stereo unspecified),inactive
8,COc1ccc(S(=O)(=O)N2CCN(c3cc(-c4ccc(F)cc4)ncn3)CC2)cc1Cl,inactive
9,Cc1ccc(CSC2=NCCN2C(=O)c2ccc3c(c2)OCO3)cc1,inactive
10,COc1cc([N+](=O)[O-])ccc1-c1ccc(C(=O)Nc2ccc(NC(C)=O)cc2)o1,inconclusive: 13%
11,O=C(NCc1ccccc1)C(NS(=O)(=O)c1cccs1)c1ccccc1 (stereo unspecified),inactive
12,COC(=O)c1cccc(NC(=S)N[C@H]2CO[C@H]3[C@@H]2OC[C@H]3OC(=O)Nc2ccc(C(C)C)cc2)c1,active: 68%
13,CCN(CCN1CCCC1)C(=O)c1cc(C)c(C)cc1C,inconclusive: 19%
14,Fc1ccccc1-n1cc(-c2ccnc(NC3CCC3)n2)cn1,inconclusive: 16%
15,COc1cc(NC(=O)COc2ccc(Cl)cc2C)ccc1NC(=O)c1ccco1,inconclusive: 25%
16,Cc1ccc2cc(CN3CCCC(N4CCCC4=O)C3)c(=O)[nH]c2c1 (stereo unspecified),inconclusive: 13%
17,CCCC12CN3CC(CCC)(CN(C1)C3c1cccs1)C2=O (stereo unspecified),inactive
18,Cc1nn(-c2ccc(Cl)nn2)c(=O)c2ccccc12,inconclusive: 10%
19,Cc1ccccc1C(=O)N1CCC2(CCCN(Cc3ccc(F)cc3)C2)C1 (stereo unspecified),inconclusive: 11%
20,CN(C)Cc1nnc(C(=O)N2C[C@H](O)[C@@H](N3CCCCC3)C2)o1,inactive
21,Oc1ccccc1C1=Nc2ccccc2N=C(c2ccc(F)cc2)C1,inconclusive: 24%
22,Cn1c(SCC(=O)Nc2ccc(F)cc2F)nc2c([nH]c3ccccc32)c1=O,inconclusive: 10%
23,Cc1ccc2oc(C(=O)NCc3n[nH]c4c3CCC4)cc2c1,inconclusive: 18%
24,CC1CN(CC(=O)NC2CCCCC2)CC(C)O1 (stereo unspecified),inactive

row,Compound,inhibition
1,COc1ccc(C(=O)Nc2ccc(-c3nc4ccccc4s3)cc2)cc1[N+](=O)[O-],inconclusive: 28%
2,Cc1[nH]nc(SCC(=O)N2CCCCC2)c1[N+](=O)[O-],inconclusive: 12%
3,COc1ncc(CN(Cc2sccc2C)CC(C)C)cn1,inactive
4,CC1CN(C(=O)Cn2cnc3c2c(=O)n(C)c(=O)n3C)CC(C)O1 (stereo unspecified),active: 95%
5,CN(Cc1cscn1)C(=O)c1nn(Cc2ccccc2)c2c1CN(C(=O)C(C)(C)C)CC2,inconclusive: 12%
6,Cc1ccc(S(=O)(=O)c2ccc(C)c(C)c2)cc1C,inconclusive: 11%
7,Cc1cc(C)n2nc(SCCC(=O)N3CCCC3)nc2n1,inactive
8,O=C(CN1CCCCCC1)NCCCC1CCOC1 (stereo unspecified),inconclusive: 13%
9,Oc1ccc(/C=C/c2nc(-c3ccccc3O)n(-c3ccccc3)n2)cc1,inconclusive: 20%
10,O=C(O)C[C@@H]1CCN(C(=O)c2ccco2)C[C@@H]1CC1=NCCc2cc(F)ccc21,inconclusive: 19%
11,COc1ccc(/C=C(/NC(=O)c2ccco2)C(=O)Nc2ccccc2)cc1,inconclusive: 10%
12,CS(=O)(=O)N(CC(=O)N1CCN(c2ccccc2F)CC1)c1ccccc1,inactive
13,O=C(Cc1ccccc1)Nc1cccc([N+](=O)[O-])c1,inconclusive: 17%
14,CC1=C(C(N)=O)C(c2ccc(Cl)cc2)n2nc(SCc3ccccc3)nc2N1 (stereo unspecified),inconclusive: 14%
15,COc1ccc(C(O)Cn2c(=N)n(C)c3ccccc32)cc1 (stereo unspecified),inconclusive: 20%
16,CCOc1ccc(CNc2cccc(-c3nc4ccccc4o3)c2)cc1,inconclusive: 13%
17,Cc1ccc(S(=O)(=O)Nc2cccc(F)c2)cc1,inconclusive: 17%
18,Cc1nc(S(=O)(=O)N2CC(c3cccnc3)C2)cn1C,inconclusive: 12%
19,COc1ncc(CN(C)Cc2ccc(C)o2)cn1,inconclusive: 17%
20,CC(=O)NCCNC(=O)C[C@@H]1CCNC[C@@H]1Cc1cc(COc2ccccc2)on1,inconclusive: 15%
21,C=C(C)CNC(=O)C1CCC(=O)N(CCCc2ccccc2)C1 (stereo unspecified),inconclusive: 12%
22,COCCNC(=O)c1ccc(OC2CCN(C(=O)C3CCCO3)CC2)c(Cl)c1 (stereo unspecified),inconclusive: 12%
23,Cc1[nH]n(-c2ccccc2)c(=O)c1C1=c2cc(Br)cc(C)c2=NC1=O,inactive
24,CC1=C(C(=O)OC2CCCCC2)C(c2ccc(Br)cc2)n2nnnc2N1 (stereo unspecified),inactive

row,Compound,inhibition
1,COc1ccc2c(CN3CCC(OCc4cccnc4)CC3)[nH]nc2c1,inconclusive: 17%
2,CCOC(=O)C1CCN(S(=O)(=O)c2ccc(CC)cc2)CC1,inconclusive: 12%
3,C=CCc1cc(Cl)ccc1OCCN1CCN(C)CC1,inconclusive: 16%
4,COCc1nc(NCc2ccc3c(c2)n(C)c(=O)n3C)c2cnn(C)c2n1,inconclusive: 14%
5,COc1ccc(S(=O)(=O)N(C(C)=O)c2ccc3oc4c(c3c2)CCCC4)cc1,inconclusive: 17%
6,O=C1C[C@H]2CC[C@@H](CN1)N2C(=O)CCc1ccccc1,inconclusive: 13%
7,Cc1nnc([C@H]2CCN(C(=O)C3CCCCC3)C2)o1,inconclusive: 11%
8,CC(C)OC(=O)c1sc2nc(N3CCOCC3)c3c(c2c1N)CC(C)(C)OC3,inconclusive: 16%
9,COc1ccc(CN2CCCCC2C)c(C)c1C (stereo unspecified),inconclusive: 13%
10,CC(C)(C)C(=O)Nc1c(C(=O)Nc2ccccc2F)oc2ccccc12,inconclusive: 14%
11,O=C(Cc1ccccn1)N1CCC(c2ccccc2Cl)C1 (stereo unspecified),inconclusive: 11%
12,CCn1c(CC2CCN(C(=O)C/C=C/c3ccccc3)CC2)nn(C)c1=O,inconclusive: 16%
13,CN(CC1CCCO1)c1nc(-c2ccc([N+](=O)[O-])cc2)cs1 (stereo unspecified),active: 54%
14,O=C(CSc1c2c(nc3ccc(Cl)cc13)CCCC2)NCc1cccs1,inconclusive: 16%
15,Cn1cnnc1SCC(=O)Nc1ccccc1C#N,inconclusive: 13%
16,C=CCOc1ccc(/C=C2\C(=O)N(c3cccc(Cl)c3)N=C2C)cc1OC,inconclusive: 17%
17,COc1ccc(CN2CCOCC2)cc1Br,inconclusive: 11%
18,O=C(Nc1nnc(C2CC2)o1)c1ccc(S(=O)(=O)N2CCCC2)cc1,inconclusive: 14%
19,Cc1cccc(C)c1-c1c(-c2ccccc2)ncn1CCCCN,inconclusive: 24%
20,O=C1C2C3C=CC(CC3)C2C(=O)N1c1ccc(Cl)cc1[N+](=O)[O-] (stereo unspecified),inconclusive: 13%
21,CCC(=O)N1N=C(c2cccs2)CC1c1ccc(C)cc1 (stereo unspecified),inconclusive: 26%
22,COc1ccccc1Cn1c(CNS(=O)(=O)c2ccc3c(c2)CCCC3)nc2cccnc21,inconclusive: 19%
23,NC(=O)Cn1cc(/C=C2/C(=O)NC(=O)N(C3CCCCC3)C2=O)c2ccccc21,inconclusive: 23%
24,CC(=O)Nc1ccc2c(c1)NC(=O)CC2c1ccnc2ccccc12 (stereo unspecified),inactive

# 5 entries from above, ordered by length of the SMILES, largest number first.
row,Compound,inhibition
20,O=C1C2C3C=CC(CC3)C2C(=O)N1c1ccc(Cl)cc1[N+](=O)[O-] (stereo unspecified),inconclusive: 13%
20,CN(C)Cc1nnc(C(=O)N2C[C@H](O)[C@@H](N3CCCCC3)C2)o1,inactive
10,CC(C)(C)C(=O)Nc1c(C(=O)Nc2ccccc2F)oc2ccccc12,inconclusive: 14%
11,O=C(NCc1ccccc1)C(NS(=O)(=O)c1cccs1)c1ccccc1 (stereo unspecified),inactive
21,C=C(C)CNC(=O)C1CCC(=O)N(CCCc2ccccc2)C1 (stereo unspecified),inconclusive: 12%
